PMC7990767
These are yes or no findings as the source states them, for the method shown. Binding seen in cells or lysates may run through a third protein. Some entries that bind do so weakly or less than the wild type.

The chains behind the UniProt entries cited, without tags or fusion partners.
UniProt P47239: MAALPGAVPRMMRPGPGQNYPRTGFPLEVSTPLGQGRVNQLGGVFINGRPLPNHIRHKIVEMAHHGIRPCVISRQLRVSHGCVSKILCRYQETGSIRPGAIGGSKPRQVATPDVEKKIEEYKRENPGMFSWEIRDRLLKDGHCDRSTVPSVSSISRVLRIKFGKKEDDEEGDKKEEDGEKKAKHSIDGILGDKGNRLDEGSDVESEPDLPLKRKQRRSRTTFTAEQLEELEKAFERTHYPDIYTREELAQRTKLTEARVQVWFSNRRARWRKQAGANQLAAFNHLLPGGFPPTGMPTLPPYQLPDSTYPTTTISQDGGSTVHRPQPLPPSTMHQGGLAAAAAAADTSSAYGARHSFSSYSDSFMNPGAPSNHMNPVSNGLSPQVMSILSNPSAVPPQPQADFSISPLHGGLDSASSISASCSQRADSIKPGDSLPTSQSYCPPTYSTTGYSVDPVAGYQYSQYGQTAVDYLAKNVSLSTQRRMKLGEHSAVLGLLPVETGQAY
UniProt P00520: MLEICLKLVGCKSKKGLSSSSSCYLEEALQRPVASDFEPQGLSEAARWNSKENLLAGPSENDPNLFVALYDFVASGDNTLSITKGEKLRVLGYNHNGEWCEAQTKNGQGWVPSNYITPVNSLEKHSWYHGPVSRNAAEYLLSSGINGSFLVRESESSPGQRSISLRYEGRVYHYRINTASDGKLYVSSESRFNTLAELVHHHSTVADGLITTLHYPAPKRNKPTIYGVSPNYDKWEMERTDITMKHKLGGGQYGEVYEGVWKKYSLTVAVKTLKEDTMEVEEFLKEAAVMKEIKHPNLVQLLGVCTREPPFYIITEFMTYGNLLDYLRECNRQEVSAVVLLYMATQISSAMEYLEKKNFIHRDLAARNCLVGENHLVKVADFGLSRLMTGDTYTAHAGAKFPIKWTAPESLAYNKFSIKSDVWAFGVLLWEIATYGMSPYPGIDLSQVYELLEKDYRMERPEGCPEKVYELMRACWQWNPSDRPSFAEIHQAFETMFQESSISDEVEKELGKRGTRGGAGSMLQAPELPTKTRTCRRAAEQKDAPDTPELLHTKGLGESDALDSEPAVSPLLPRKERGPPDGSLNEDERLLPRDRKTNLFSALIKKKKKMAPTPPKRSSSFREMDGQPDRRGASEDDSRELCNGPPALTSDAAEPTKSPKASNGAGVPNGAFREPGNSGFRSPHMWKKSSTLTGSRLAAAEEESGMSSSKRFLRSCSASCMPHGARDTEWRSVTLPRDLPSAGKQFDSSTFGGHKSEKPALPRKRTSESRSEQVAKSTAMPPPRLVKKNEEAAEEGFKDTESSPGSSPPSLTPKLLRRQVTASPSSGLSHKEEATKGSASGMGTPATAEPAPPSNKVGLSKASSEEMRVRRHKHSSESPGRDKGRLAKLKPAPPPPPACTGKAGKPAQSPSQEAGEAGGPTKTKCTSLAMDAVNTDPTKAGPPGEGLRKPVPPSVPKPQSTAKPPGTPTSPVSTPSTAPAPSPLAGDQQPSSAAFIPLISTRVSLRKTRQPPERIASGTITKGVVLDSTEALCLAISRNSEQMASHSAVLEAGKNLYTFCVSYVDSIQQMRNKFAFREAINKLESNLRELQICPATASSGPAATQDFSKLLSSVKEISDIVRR

Experiments:
[1] = target: Pax7 (mouse (endogenous in C2C12 cells and in mouse TA muscle)) (UniProt P47239); experiment: co-IP; whole tibialis anterior muscle extracts at 30 dpi, injured and non-injured muscles, vehicle- or tamoxifen-treated Abl1 flox/flox-Pax7 creERT2 mice; IP of Pax7, c-Abl detected by Western blot
[2] = target: Pax7 (mouse (endogenous in C2C12 cells and in mouse TA muscle)) (UniProt P47239); experiment: co-IP; C2C12 cells in proliferation medium, treated with vehicle or 10 uM Imatinib for 24 h; lysis in modified RIPA (50 mM Tris-HCl pH 7.4, 150 mM NaCl, 1% IGEPAL); IP with anti-Pax7 or normal mouse IgG on Dynabeads Protein G, 2 h at room temperature; c-Abl detected by Western blot

For “Abelson non-receptor tyrosine kinase 1 (c-Abl) (from UniProt P00520 1-1123) (enzyme)”, the binding [1] was “binds” and the binding [2] was “binds”.
